# Measurements from patent publication US7811561 (dated 2010).
# Sequences of proteins named here, by UniProt entry; tags and fusion partners are left off.
# UniProt P25322: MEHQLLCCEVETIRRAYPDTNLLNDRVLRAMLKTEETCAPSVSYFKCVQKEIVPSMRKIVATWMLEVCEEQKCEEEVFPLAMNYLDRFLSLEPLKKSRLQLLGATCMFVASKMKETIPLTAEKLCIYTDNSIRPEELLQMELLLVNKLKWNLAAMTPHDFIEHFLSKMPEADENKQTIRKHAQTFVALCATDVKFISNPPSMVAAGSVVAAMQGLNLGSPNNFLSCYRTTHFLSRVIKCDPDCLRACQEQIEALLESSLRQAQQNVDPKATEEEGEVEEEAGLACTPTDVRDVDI
# These are yes or no findings as the source states them, for the method shown. In cells and extracts the contact can be indirect. Some entries that bind do so weakly or less than the wild type.
# Biological target: T1, cyclin D1 (UniProt P25322 1-295)
# T1 construct: Immunoprecipitated from NIH 3T3 lysates
# Assay: co-immunoprecipitation with cyclin D1 from NIH 3T3 lysates, immunoblot
row,binding,Binder
1,binds,"cdk4 (enzyme, UniProt P30285 2-303, looked up) AATRYEPVAEIGVGAYGTVYKARDPHSGHFVALKSVRVPNGGAAGGGLPVSTVREVALLRRLEAFEHPNVVRLMDVCATSRTDRDIKVTLVFEHIDQDLRTYLDKAPPPGLPVETIKDLMRQFLSGLDFLHANCIVHRDLKPENILVTSNGTVKLADFGLARIYSYQMALTPVVVTLWYRAPEVLLQSTYATPVDMWSVGCIFAEMFRRKPLFCGNSEADQLGKIFDLIGLPPEDDWPREVSLPRGAFAPRGPRPVQSVVPEMEESGAQLLLEMLTFNPHKRISAFRALQHSYLHKEESDAE"
2,binds,cdk6 (protein) MEKDSLSRADQQYECVAEIGEGAYGKVFKARDLKNGGRFVALKRVRVQTSEEGMPLSTIREVAVLRHLETFEHPNVVRLFDVCTVSRTDRETKLTLVFEHVDQDLTTYLDKVPEPGVPTETIKDMMFQLLRGLDFLHSHRVVHRDLKPQNILVTSSGQIKLADFGLARIYSFQMALTSVVVTLWYRAPEVLLQSSYATPVDLWSVGCIFAEMFRRKPLFRGSSDVDQLGKILDIIGLPGEEDWPRDVALPRQAFHSKSAQPIEKFVTDIDELGKDLLLKCLTFNPAKRISAYGALNHPYFQDLERYKDNLNSHLPSNQSTSELNTA
